Experimental data published in paper PMC11231337.
Results are given in words; binding and its absence hold for the method and conditions named. Binding calls can cover weak binding; strength is not graded here. Sequences can lack the tags named with a protein.

Target: GST-PD-L1 intracellular domain (ICD) (not stated (human or mouse cDNA cloned))
Experiment: pull-down; GST pull-down with GST-tagged PD-L1 FL, ECD or ICD purified from E. coli and His-tagged PPM1B; 1 μg of each indicated protein; both purified

B1: His-tagged PPM1B (enzyme, UniProt O75688 1-479)
chain: MGAFLDKPKTEKHNAHGAGNGLRYGLSSMQGWRVEMEDAHTAVVGIPHGLEDWSFFAVYDGHAGSRVANYCSTHLLEHITTNEDFRAAGKSGSALELSVENVKNGIRTGFLKIDEYMRNFSDLRNGMDRSGSTAVGVMISPKHIYFINCGDSRAVLYRNGQVCFSTQDHKPCNPREKERIQNAGGSVMIQRVNGSLAVSRALGDYDYKCVDGKGPTEQLVSPEPEVYEILRAEEDEFIILACDGIWDVMSNEELCEYVKSRLEVSDDLENVCNWVVDTCLHKGSRDNMSIVLVCFSNAPKVSDEAVKKDSELDKHLESRVEEIMEKSGEEGMPDLAHVMRILSAENIPNLPPGGGLAGKRNVIEAVYSRLNPHRESDGASDEAEESGSQGKLVEALRQMRINHRGNYRQLLEEMLTSYRLAKVEGEESPAEPAATATSSNSDAGNPVTMQESHTESESGLAELDSSNEDAGTKMSGEKI
- binding: binds
